Experimental data reported in patent publication US8475772B2 (E I du Pont de Nemours and Company, priority 2003, dated 2013).
Where a sequence shows no end group, the ends are not given.

Assay: peptide made by a vendor
Conditions: for purity (crude or final not stated): whole synthesis

Substance	crude LC-MS purity (late stage modification step) [% by weight]	step yield (late stage modification step) [% yield]	purity (crude or final not stated) [% purity]
t-Boc-D21-peptide	90	80	
Fmoc-R(Pbf)T(tBu)N(Trt)AAD(OtBu)H(Trt)PAAVT(tBu)GGG			95
RTNAADHPAAVT			95
